Among the data in PMC11077377 are binding values, retold here.

Amino acid sequences for entries named in this document (tags omitted). Residues count along the entry.
UniProt P35968, residues 20-1356: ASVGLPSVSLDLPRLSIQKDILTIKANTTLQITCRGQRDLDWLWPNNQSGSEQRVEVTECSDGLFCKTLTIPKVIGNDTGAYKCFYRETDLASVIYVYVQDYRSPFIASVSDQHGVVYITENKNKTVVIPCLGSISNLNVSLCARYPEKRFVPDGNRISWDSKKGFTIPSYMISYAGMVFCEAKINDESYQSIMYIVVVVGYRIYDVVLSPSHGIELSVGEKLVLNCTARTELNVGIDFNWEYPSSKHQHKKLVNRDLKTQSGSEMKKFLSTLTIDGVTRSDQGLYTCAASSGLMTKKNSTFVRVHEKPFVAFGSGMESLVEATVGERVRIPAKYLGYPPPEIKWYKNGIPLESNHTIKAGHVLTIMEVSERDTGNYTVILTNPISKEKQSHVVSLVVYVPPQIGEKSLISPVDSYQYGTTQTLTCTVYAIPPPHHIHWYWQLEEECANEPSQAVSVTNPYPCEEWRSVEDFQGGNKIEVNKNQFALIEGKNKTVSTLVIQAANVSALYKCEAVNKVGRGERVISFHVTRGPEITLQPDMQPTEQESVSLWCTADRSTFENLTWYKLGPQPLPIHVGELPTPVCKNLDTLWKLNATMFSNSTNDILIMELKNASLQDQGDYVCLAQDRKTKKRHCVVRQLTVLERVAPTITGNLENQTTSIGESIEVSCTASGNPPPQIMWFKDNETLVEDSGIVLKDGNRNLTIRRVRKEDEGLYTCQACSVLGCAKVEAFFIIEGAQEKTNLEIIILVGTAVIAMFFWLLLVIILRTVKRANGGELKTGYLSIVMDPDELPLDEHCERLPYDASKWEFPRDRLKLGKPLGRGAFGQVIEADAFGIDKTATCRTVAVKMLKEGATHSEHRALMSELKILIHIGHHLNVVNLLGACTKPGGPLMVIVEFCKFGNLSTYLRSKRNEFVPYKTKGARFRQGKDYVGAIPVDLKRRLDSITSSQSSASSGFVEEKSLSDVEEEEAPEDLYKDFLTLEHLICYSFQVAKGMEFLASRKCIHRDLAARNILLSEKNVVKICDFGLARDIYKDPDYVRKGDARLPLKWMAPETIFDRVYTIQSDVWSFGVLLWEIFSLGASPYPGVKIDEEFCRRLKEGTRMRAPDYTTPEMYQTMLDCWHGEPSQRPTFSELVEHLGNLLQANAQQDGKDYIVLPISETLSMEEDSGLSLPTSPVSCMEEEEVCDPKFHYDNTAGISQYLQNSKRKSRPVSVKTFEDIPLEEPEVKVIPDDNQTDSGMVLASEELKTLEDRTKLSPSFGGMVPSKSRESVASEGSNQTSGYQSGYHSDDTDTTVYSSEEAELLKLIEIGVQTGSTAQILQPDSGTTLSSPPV

These are yes or no findings as the source states them, for the method shown. In cells and extracts the contact can be indirect. Some binding calls cover weakened binding; strength is not graded here. For some assays here: Sequences can lack the tags named with a protein.

Assay [1] deals with T1, ECM1 fused to a fluorescent protein (GFP or RFP) for FRET-FLIM (human) (UniProt Q16610).
T1 sequence: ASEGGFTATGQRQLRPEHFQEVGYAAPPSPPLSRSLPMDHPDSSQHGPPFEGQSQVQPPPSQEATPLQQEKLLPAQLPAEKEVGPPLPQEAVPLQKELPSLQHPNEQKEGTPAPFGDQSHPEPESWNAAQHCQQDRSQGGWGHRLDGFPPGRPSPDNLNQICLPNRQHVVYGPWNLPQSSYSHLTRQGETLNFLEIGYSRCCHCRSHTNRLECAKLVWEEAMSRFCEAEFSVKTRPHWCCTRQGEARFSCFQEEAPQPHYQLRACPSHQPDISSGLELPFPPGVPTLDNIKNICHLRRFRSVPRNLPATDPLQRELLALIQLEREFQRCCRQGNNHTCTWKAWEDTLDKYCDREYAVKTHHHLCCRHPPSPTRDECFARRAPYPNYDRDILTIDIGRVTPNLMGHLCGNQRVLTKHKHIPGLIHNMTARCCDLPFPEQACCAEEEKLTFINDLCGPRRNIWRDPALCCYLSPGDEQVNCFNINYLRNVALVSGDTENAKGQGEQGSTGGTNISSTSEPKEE
As to the kind of experiment: FRET or BRET; FRET-FLIM; GFP-fused donor and RFP-fused acceptor transiently co-expressed in HEY and SKOV3 cells; excitation 489 nm, GFP lifetime measured. (In BRET a luciferase serves as donor, and the signal depends on an acceptor being close.)

Assay [2] concerns the target T2, extracellular matrix protein 1 (ECM1) (human) (UniProt Q16610).
T2 sequence: T1 sequence
In words: co-IP; RIPA cell lysate; protein A/G beads with 25 ug IgG/ECM1/VEGFR2 antibody; lysate incubated 2 h at room temperature; SDS-PAGE and blot.

On to “VEGFR2 fused to a fluorescent protein (GFP or RFP) for FRET-FLIM (from UniProt P35968 20-1356) (receptor)”, for which the binding entry in assay [1] is “binds”.

As for “vascular endothelial growth factor receptor 2 (VEGFR2) (from UniProt P35968 20-1356)”, in assay [2], the binding entry is “binds”.
